Results are given in words; binding and its absence hold for the method and conditions named. Binding calls can cover weak binding; strength is not graded here.

Amino acid sequences for entries named in this document (tags omitted).
UniProt A0R0B3: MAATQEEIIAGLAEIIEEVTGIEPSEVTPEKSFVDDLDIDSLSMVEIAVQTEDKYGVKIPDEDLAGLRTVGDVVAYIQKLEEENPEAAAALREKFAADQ

In PMC12346298, “Structures of MmpL complexes reveal the assembly and mechanism of this family of transporters” (Science Advances, 2025) one finds binding data, which are given here for one substance.

Experiment [1] has as its target mycobacterial membrane protein large 5 (MmpL5) transporter, M. smegmatis (M. smegmatis) (UniProt A0QS80). Briefly: cryo-EM structure; particle class 2 (tripartite trimeric AcpM-MmpL5-MmpS5 complex) from the same LMNG-solubilized crude membrane sample; Build and Retrieve processing; 2.81 Å.
Experiment [2] shares this target. Briefly: cryo-EM structure; particle class 3 (dipartite trimeric AcpM-MmpL5 complex) from the same LMNG-solubilized crude membrane sample; Build and Retrieve processing; 3.37 Å.

On to “meromycolate extension acyl carrier protein M (AcpM), M. smegmatis (from UniProt A0R0B3 1-99)”, for which the binding entry in experiment [1] and in experiment [2] was “binds” throughout.
